The values below come from article PMC7604352.

Sequences of proteins named here, by UniProt entry; tags and fusion partners are left off. Residues count along the entry.
UniProt O00206, residues 24-839: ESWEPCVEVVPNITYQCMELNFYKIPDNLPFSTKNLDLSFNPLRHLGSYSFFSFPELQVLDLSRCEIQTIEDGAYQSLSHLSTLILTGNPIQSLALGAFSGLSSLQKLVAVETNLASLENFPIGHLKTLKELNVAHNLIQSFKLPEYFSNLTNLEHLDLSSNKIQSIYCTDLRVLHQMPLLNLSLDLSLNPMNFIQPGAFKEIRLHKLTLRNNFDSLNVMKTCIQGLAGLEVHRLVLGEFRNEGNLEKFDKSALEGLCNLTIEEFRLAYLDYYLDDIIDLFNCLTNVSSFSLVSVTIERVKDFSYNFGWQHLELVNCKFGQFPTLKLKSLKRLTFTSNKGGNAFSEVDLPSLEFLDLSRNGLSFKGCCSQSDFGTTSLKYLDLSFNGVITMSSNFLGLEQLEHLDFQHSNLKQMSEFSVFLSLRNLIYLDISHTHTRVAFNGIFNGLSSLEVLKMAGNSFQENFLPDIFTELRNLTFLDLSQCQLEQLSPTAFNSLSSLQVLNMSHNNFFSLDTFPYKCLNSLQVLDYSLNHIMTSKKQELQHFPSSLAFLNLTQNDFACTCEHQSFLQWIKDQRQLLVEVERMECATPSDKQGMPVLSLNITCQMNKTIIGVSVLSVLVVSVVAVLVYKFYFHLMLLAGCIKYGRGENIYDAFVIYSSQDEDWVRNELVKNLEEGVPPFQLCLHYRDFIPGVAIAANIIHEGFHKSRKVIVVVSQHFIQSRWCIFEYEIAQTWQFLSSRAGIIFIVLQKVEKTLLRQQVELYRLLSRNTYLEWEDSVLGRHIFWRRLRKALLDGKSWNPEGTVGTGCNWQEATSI

Results are given in words; binding and its absence hold for the method and conditions named. Binding seen in cells or lysates may run through a third protein. Some entries that bind do so weakly or less than the wild type.

The target in this experiment is toll-like receptor 4 (human (endogenous in Hep3B)) (UniProt O00206). Briefly: co-IP; Hep3B cells; immunoprecipitation with the antibody against TLR4 (sc-293072, Santa Cruz), blot for USP13; protocol as in Tu et al., 2014.

B1: ubiquitin specific peptidase 13 (enzyme, UniProt Q92995 1-863)
chain: MQRRGALFGMPGGSGGRKMAAGDIGELLVPHMPTIRVPRSGDRVYKNECAFSYDSPNSEGGLYVCMNTFLAFGREHVERHFRKTGQSVYMHLKRHVREKVRGASGGALPKRRNSKIFLDLDTDDDLNSDDYEYEDEAKLVIFPDHYEIALPNIEELPALVTIACDAVLSSKSPYRKQDPDTWENELPVSKYANNLTQLDNGVRIPPSGWKCARCDLRENLWLNLTDGSVLCGKWFFDSSGGNGHALEHYRDMGYPLAVKLGTITPDGADVYSFQEEEPVLDPHLAKHLAHFGIDMLHMHGTENGLQDNDIKLRVSEWEVIQESGTKLKPMYGPGYTGLKNLGNSCYLSSVMQAIFSIPEFQRAYVGNLPRIFDYSPLDPTQDFNTQMTKLGHGLLSGQYSKPPVKSELIEQVMKEEHKPQQNGISPRMFKAFVSKSHPEFSSNRQQDAQEFFLHLVNLVERNRIGSENPSDVFRFLVEERIQCCQTRKVRYTERVDYLMQLPVAMEAATNKDELIAYELTRREAEANRRPLPELVRAKIPFSACLQAFSEPENVDDFWSSALQAKSAGVKTSRFASFPEYLVVQIKKFTFGLDWVPKKFDVSIDMPDLLDINHLRARGLQPGEEELPDISPPIVIPDDSKDRLMNQLIDPSDIDESSVMQLAEMGFPLEACRKAVYFTGNMGAEVAFNWIIVHMEEPDFAEPLTMPGYGGAASAGASVFGASGLDNQPPEEIVAIITSMGFQRNQAIQALRATNNNLERALDWIFSHPEFEEDSDFVIEMENNANANIISEAKPEGPRVKDGSGTYELFAFISHMGTSTMSGHYICHIKKEGRWVIYNDHKVCASERPPKDLGYMYFYRRIPS
For B1, the binding entry was “binds”.
